Assay results taken from article PMC7188823, “The BRCA2-MEILB2-BRME1 complex governs meiotic recombination and impairs the mitotic BRCA2-RAD51 function in cancer cells” (Nature Communications, 2020).

T1: MEILB2 (bait of the Y2H assay, in pGBKT7) (mouse) (UniProt Q9D4G2)
T1 sequence: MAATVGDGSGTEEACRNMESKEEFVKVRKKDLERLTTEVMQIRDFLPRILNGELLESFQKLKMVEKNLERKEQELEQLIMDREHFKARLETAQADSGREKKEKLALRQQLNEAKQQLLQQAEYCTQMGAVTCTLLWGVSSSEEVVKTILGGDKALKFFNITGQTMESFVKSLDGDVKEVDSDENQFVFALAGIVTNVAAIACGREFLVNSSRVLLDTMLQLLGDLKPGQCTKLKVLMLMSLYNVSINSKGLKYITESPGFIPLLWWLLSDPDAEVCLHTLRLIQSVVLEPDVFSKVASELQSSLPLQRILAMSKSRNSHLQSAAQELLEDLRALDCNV


Tests used:
[1] = biological target: T1, MEILB2 (bait of the Y2H assay, in pGBKT7) (mouse); experiment: two-hybrid; baits in pGBKT7, Brme1 preys in pGADT7, co-transformed into AH109; SD–tryptophan–leucine–histidine–adenine
[2] = biological target: BRME1 (endogenous, mouse testis) (mouse (endogenous in testis)); experiment: co-IP; IPs with the BRME1 or BRCA2 antibodies on Dynabeads protein A from mouse testis extracts; wash with 400 mM KCl buffer; western blotting
[3] = biological target: FLAG-tagged BRME1 MBD (a.a. 519–600) (mouse); experiment: co-IP; IP with the FLAG antibody (Anti-FLAG M2 Magnetic Beads) from B16-F1 cells expressing MEILB2-MYC and FLAG-BRME1 truncations; wash with 400 mM KCl buffer
[4] = biological target: FLAG-tagged BRME1 N (a.a. 1–518) (mouse); experiment: as above
[5] = biological target: FLAG-tagged BRME1 F (a.a. 1–605) (mouse); experiment: as above

| Molecule | binding [1] | binding [2] | also measured |
| --- | --- | --- | --- |
| BRME1-N (a.a. 1–518), Y2H prey (mouse) (domain or fragment) | no binding | – | – |
| BRME1-MBD (a.a. 519–600), Y2H prey (mouse) (domain or fragment) | binds | – | – |
| MYC-tagged MEILB2 (MEILB2-MYC) (protein, UniProt Q9D4G2 1-338) MAATVGDGSGTEEACRNMESKEEFVKVRKKDLERLTTEVMQIRDFLPRILNGELLESFQKLKMVEKNLERKEQELEQLIMDREHFKARLETAQADSGREKKEKLALRQQLNEAKQQLLQQAEYCTQMGAVTCTLLWGVSSSEEVVKTILGGDKALKFFNITGQTMESFVKSLDGDVKEVDSDENQFVFALAGIVTNVAAIACGREFLVNSSRVLLDTMLQLLGDLKPGQCTKLKVLMLMSLYNVSINSKGLKYITESPGFIPLLWWLLSDPDAEVCLHTLRLIQSVVLEPDVFSKVASELQSSLPLQRILAMSKSRNSHLQSAAQELLEDLRALDCNV | – | – | binding [3]: binds; binding [4]: no binding; binding [5]: binds |

Now from value to molecule, other results behind:

| binding [1] | binding [2] | Molecule | also measured |
| --- | --- | --- | --- |
| – | no binding | DMC1 (endogenous, mouse testis) (protein, UniProt Q61880 1-340) MKEDQVVQEESGFQDDEESLFQDIDLLQKHGINMADIKKLKSVGICTIKGIQMTTRRALCNVKGLSEAKVEKIKEAANKLIEPGFLTAFQYSERRKMVFHITTGSQEFDKLLGGGIESMAITEAFGEFRTGKTQLSHTLCVTAQLPGTGGYSGGKIIFIDTENTFRPDRLRDIADRFNVDHEAVLDNVLYARAYTSEHQMELLDYVAAKFHEEAGIFKLLIIDSIMALFRVDFSGRGELAERQQKLAQMLSRLQKISEEYNVAVFVTNQMTADPGATMTFQADPKKPIGGHILAHASTTRISLRKGRGELRIAKIYDSPEMPENEATFAITAGGIGDAKE | – |
| – | binds | MEILB2 (endogenous, mouse testis) (protein, UniProt Q9D4G2 1-338) MAATVGDGSGTEEACRNMESKEEFVKVRKKDLERLTTEVMQIRDFLPRILNGELLESFQKLKMVEKNLERKEQELEQLIMDREHFKARLETAQADSGREKKEKLALRQQLNEAKQQLLQQAEYCTQMGAVTCTLLWGVSSSEEVVKTILGGDKALKFFNITGQTMESFVKSLDGDVKEVDSDENQFVFALAGIVTNVAAIACGREFLVNSSRVLLDTMLQLLGDLKPGQCTKLKVLMLMSLYNVSINSKGLKYITESPGFIPLLWWLLSDPDAEVCLHTLRLIQSVVLEPDVFSKVASELQSSLPLQRILAMSKSRNSHLQSAAQELLEDLRALDCNV | – |

Results are given in words; binding and its absence hold for the method and conditions named. For some of these results: A result given as binding can be weak or reduced; the word gives no strength. For some of these results: Binding seen in cells or lysates may run through a third protein. For some of these results: Sequences can lack the tags named with a protein.
